Some of the results follow.
compound: O=C(CCCCCCC(=O)Nc1ccccc1)NO [vorinostat]; assay: log2 fold change, soluble protein after heating vs DMSO (PISA); higher = thermal stabilisation; K562 cells, 10 uM, 30 min; active = over 0.2 and 3.5 SD of the protein, either way, in both replicates (recomputed)
Summary of the method: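 K562 cells at 2×10^6 cells/mL were exposed to 10 μM compound for 30 min, then aliquots were heated for 3 min across 48°C-58°C, pooled, and extracted in PBS containing 0.5% NP-40 at 4°C. The supernatant after 21,000xg for 90 min was taken as soluble protein and measured by TMTpro 16plex LC-MS/MS with channel sums equalised. Thermal stability is reported relative to control samples, with values from duplicates. Fold changes are given on a log2 scale.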

Sequences of proteins named here, by UniProt entry; tags and fusion partners are left off. A change or cut given only in a name is not applied to a line headed by its entry.
UniProt Q5HYJ3: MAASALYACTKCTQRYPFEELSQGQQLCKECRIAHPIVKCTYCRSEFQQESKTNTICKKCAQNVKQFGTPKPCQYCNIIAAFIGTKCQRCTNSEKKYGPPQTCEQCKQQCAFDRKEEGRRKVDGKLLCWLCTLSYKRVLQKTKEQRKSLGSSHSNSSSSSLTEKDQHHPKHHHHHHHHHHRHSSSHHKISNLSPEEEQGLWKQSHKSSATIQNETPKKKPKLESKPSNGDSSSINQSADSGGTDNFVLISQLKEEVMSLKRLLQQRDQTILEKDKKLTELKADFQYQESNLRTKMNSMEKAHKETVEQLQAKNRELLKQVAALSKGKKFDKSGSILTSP
UniProt Q8NEZ5: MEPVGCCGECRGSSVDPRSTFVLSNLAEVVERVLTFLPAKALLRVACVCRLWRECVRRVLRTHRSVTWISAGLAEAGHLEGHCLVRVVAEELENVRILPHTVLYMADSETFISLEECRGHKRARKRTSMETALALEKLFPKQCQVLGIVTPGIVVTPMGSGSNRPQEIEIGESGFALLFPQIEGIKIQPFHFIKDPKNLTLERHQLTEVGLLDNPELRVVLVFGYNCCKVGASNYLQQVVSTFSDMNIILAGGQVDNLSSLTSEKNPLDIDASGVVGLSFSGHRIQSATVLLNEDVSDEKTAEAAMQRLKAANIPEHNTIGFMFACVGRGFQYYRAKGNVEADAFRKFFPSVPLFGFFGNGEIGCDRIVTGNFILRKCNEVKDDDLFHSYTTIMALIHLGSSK
UniProt Q5T1M5: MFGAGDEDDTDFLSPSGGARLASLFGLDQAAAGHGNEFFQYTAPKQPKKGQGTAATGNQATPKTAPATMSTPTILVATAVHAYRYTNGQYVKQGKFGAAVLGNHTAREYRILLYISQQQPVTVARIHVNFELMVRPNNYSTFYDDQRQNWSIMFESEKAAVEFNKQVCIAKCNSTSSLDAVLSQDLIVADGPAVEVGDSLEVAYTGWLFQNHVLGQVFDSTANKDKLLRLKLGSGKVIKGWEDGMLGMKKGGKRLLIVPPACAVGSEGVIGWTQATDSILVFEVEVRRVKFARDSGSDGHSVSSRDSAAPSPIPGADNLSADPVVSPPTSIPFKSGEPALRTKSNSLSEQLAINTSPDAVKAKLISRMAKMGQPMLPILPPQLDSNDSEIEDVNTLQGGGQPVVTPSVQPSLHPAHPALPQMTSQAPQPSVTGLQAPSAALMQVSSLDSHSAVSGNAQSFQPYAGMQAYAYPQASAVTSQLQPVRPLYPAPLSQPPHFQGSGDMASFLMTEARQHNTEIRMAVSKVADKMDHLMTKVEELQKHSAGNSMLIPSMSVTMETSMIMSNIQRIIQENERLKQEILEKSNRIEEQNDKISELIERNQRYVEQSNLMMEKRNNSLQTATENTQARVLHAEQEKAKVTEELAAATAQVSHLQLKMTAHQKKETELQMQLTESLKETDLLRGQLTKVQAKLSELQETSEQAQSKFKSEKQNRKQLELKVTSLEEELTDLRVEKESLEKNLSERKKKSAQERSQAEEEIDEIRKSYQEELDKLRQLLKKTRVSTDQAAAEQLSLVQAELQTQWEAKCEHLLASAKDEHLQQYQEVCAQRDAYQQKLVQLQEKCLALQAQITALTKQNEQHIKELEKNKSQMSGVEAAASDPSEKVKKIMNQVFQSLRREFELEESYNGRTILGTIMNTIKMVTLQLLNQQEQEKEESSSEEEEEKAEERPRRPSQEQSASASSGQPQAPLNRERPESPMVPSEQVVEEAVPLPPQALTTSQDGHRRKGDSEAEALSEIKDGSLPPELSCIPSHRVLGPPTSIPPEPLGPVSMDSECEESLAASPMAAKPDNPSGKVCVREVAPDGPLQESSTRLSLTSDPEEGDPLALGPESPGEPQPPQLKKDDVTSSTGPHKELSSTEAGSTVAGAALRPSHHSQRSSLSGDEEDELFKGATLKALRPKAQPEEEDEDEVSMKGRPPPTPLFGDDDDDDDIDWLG
UniProt Q00688: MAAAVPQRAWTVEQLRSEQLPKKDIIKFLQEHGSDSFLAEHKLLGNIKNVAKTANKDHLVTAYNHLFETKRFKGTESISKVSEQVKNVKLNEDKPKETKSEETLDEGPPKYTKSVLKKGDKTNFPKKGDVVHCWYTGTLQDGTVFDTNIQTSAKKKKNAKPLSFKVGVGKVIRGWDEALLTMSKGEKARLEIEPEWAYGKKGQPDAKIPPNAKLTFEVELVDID
UniProt Q96IG2: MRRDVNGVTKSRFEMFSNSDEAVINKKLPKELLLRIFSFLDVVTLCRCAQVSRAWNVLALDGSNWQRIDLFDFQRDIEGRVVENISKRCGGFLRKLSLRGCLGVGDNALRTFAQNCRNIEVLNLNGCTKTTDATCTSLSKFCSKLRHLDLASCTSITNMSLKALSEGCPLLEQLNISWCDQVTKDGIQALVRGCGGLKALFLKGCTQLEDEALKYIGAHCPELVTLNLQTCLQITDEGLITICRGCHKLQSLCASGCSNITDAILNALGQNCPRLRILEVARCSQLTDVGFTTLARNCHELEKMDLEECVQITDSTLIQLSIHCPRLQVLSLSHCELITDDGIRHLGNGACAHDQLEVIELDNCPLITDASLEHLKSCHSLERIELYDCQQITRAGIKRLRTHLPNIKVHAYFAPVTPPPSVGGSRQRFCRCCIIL
UniProt Q9UIM3: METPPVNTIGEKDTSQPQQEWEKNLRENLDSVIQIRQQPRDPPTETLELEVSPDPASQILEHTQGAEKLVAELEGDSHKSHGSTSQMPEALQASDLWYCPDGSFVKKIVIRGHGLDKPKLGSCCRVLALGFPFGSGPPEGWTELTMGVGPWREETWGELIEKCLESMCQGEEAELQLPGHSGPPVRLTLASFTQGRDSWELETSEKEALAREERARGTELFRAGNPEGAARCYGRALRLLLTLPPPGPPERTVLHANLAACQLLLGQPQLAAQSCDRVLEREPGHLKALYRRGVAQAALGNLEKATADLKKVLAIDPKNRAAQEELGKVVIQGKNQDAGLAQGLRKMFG
UniProt O95363: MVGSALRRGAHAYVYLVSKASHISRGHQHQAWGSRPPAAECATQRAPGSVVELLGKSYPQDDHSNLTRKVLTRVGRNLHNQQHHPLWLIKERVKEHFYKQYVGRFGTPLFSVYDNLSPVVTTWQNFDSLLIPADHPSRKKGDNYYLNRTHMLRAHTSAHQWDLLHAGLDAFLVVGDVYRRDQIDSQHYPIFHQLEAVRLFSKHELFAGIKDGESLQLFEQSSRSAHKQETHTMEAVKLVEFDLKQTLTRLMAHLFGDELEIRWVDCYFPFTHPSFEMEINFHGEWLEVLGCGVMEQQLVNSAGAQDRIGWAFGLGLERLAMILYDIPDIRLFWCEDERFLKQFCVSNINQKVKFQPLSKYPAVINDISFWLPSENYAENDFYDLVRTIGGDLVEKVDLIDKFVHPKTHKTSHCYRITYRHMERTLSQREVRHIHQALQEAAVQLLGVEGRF
UniProt Q8TB52: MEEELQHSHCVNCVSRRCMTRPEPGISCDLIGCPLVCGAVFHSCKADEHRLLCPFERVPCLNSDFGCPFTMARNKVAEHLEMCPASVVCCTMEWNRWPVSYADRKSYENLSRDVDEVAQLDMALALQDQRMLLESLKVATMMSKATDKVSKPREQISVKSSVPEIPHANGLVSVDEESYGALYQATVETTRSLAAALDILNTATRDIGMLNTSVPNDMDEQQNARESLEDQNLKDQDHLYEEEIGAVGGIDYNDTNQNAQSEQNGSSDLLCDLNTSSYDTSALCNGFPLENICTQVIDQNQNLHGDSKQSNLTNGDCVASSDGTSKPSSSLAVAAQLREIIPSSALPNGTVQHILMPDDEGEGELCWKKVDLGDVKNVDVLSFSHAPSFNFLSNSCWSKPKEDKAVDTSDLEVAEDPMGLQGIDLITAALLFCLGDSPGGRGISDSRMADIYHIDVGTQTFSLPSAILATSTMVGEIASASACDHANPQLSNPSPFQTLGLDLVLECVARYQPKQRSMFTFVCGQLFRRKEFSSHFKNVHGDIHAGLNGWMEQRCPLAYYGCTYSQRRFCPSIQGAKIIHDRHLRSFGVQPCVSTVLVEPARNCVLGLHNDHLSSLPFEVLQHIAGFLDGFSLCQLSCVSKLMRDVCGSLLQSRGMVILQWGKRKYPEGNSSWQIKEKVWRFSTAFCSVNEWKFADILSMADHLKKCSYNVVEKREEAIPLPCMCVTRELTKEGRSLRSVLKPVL
UniProt Q14192: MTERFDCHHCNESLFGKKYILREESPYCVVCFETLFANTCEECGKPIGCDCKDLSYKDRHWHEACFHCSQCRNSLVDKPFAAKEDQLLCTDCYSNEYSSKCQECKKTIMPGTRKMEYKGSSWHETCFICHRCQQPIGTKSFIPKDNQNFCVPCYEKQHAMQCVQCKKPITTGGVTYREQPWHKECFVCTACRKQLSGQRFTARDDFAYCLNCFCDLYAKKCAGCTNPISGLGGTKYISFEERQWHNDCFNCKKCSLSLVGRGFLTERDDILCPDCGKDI
UniProt P22830: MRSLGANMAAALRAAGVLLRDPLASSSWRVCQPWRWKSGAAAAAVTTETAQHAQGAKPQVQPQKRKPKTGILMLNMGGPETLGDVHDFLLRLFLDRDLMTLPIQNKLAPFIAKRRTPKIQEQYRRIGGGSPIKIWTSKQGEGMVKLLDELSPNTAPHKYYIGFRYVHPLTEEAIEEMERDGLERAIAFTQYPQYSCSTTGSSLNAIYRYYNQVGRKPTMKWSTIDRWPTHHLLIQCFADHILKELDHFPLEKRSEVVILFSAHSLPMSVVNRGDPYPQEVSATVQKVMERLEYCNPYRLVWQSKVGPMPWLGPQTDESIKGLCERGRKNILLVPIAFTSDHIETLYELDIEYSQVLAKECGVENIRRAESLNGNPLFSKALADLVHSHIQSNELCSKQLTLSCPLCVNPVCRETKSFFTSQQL
UniProt Q14320: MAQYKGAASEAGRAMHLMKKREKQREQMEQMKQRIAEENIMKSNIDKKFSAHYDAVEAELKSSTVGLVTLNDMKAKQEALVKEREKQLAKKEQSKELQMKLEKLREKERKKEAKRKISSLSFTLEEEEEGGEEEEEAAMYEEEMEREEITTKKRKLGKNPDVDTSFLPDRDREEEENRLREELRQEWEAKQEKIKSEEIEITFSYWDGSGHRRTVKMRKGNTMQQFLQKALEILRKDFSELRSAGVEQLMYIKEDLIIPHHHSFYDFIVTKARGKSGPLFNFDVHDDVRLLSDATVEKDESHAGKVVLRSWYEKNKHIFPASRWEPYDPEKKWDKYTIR
UniProt P22087: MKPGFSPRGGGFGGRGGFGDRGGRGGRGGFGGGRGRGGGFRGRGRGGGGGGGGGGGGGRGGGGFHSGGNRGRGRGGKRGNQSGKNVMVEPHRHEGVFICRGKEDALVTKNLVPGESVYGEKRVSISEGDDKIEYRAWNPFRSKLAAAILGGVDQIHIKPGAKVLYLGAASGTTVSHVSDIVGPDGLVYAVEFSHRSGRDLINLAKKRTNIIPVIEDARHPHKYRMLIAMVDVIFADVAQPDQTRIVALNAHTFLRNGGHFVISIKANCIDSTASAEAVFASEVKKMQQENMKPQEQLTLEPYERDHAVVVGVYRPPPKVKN
UniProt Q9UK99: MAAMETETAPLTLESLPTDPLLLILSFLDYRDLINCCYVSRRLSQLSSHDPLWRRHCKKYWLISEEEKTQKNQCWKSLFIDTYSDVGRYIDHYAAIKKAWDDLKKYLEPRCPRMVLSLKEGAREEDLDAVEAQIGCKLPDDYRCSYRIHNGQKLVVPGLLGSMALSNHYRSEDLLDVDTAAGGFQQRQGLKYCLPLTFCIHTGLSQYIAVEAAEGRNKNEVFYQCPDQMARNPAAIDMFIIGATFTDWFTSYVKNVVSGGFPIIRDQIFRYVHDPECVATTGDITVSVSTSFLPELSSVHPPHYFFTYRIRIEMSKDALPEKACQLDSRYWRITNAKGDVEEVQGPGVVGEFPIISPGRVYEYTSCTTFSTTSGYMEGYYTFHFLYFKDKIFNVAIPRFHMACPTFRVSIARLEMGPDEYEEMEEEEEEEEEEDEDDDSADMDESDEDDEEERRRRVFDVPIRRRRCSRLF
UniProt Q9Y5Y0: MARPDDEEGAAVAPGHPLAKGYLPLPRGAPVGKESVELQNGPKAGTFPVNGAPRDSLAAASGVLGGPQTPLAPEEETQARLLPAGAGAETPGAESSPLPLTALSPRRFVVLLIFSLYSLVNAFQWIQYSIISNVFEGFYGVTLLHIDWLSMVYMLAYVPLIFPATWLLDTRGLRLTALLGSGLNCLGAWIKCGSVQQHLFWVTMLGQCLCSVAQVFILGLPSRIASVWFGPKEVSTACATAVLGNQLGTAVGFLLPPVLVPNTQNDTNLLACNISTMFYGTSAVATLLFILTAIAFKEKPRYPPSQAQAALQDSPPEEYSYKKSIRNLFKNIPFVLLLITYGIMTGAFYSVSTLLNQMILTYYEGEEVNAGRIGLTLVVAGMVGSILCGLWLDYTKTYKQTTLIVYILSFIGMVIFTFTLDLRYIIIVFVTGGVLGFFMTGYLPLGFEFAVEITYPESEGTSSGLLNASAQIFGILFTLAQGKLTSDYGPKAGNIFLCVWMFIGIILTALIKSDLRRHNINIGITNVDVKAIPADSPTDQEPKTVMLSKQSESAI

log2 fold change, inactive:
FBXO5 (UniProt Q9UKT4) -0.024
FEM1B (UniProt Q9UK73) 0.012
FKBP7 (UniProt Q9Y680) -0.017
FAM76B (UniProt Q5HYJ3) 0.105
FIP1L1 (UniProt Q6UN15) 0.011
FBXO22 (UniProt Q8NEZ5) 0
FAM91A1 (UniProt Q658Y4) 0.004
FKBP15 (UniProt Q5T1M5) 0.091
FKBP3 (UniProt Q00688) 0.007
FBXO7 (UniProt Q9Y3I1) 0.097
FDX2 (UniProt Q6P4F2) -0.116
FDFT1 (UniProt P37268) -0.018
FBXL20 (UniProt Q96IG2) 0.065
FKBPL (UniProt Q9UIM3) 0.009
FARS2 (UniProt O95363) 0.073
FBXO30 (UniProt Q8TB52) -0.07
FHL2 (UniProt Q14192) -0.018
FECH isoform 2 (UniProt P22830) -0.228
FAM50A (UniProt Q14320) 0.011
FBL (UniProt P22087) 0.005
FBLL1 (UniProt A6NHQ2) -0.074
FBXO3 (UniProt Q9UK99) 0.011
FN3KRP (UniProt Q9HA64) 0.001
FLVCR1 (UniProt Q9Y5Y0) -0.06

At a glance, some entries already given:
log2 fold change, inactive:
FKBP15 (UniProt Q5T1M5) 0.091
FKBP3 (UniProt Q00688) 0.007

— the supplement of paper PMC10849652
